Assay results taken from patent US20040110821A1, “GAL3 receptor antagonists for the treatment of affective disorders” (priority 2002, published 2004).

Tested on: NE transporter
Assay: Binding at native NE transporter
Settings: Ki at rNE Uptk divided by Ki at human GAL3

SMILES	selectivity ratio rNE Uptk
Cc1ccc(Nc2cc(N3CCCCC3)nc(N(C)CCc3c[nH]c4ccccc34)n2)cc1 [Example 11]	>100
CN(CCc1c[nH]c2ccccc12)c1nc(Nc2ccc(F)c(F)c2)cc(N2CCCCC2)n1 [Example 15]	>100
COc1cccc(Nc2cc(N3CCCCC3)nc(N(C)CCc3c[nH]c4ccccc34)n2)c1 [Example 17]	>100
Cc1ccc(Nc2cc(N3CCCCC3)nc(N(C)CCc3ccccc3)n2)cc1 [Example 22]	>100
Cc1ccc(Nc2cc(N3CCCCC3)nc(N3CCN(c4ncccc4C(F)(F)F)CC3)n2)cc1 [Example 34]	>100
Cc1ccc(Nc2cc(N(C)C)nc(N(C)CCc3c[nH]c4ccccc34)n2)cc1 [Example 77]	>100
O=C1C(=Nc2cccc(C(F)(F)F)c2)c2ccccc2N1c1ccccc1 [Example 92, 1-PHENYL-3-[[3-(TRIFLUOROMETHYL)PHENYL]IMINO]-1,3-DIHYDRO-2H-INDOL-2-ONE]	>100
O=C1C(=Nc2cccc(Cl)c2)c2ccccc2N1c1ccccc1 [Example 94, 3-[(3-CHLOROPHENYL)IMINO]-1-PHENYL-1,3-DIHYDRO-2H-INDOL-2-ONE]	>30
O=C1C(=Nc2ccc(C(F)(F)F)cc2)c2ccccc2N1c1ccccc1 [Example 95, 1-PHENYL-3-[[4-(TRIFLUOROMETHYL)PHENYL]IMINO]-1,3-DIHYDRO-2H-INDOL-2-ONE]	>100
O=C1C(=Nc2ccc(Cl)cc2)c2ccccc2N1c1ccccc1 [Example 97, 3-[(4-CHLOROPHENYL)IMINO]-1-PHENYL-1,3-DIHYDRO-2H-INDOL-2-ONE]	>30
O=C1C(=Nc2ccc(Br)cc2)c2ccccc2N1c1ccccc1 [Example 98, 3-[(4-BROMOPHENYL)IMINO]-1-PHENYL-1,3-DIHYDRO-2H-INDOL-2-ONE]	>100
